Source: the supplement of paper PMC10849652
This is one part of the list. Residues, ends and D or L forms follow the SMILES beside them. *: point of attachment. Cbz = O=C(OCc1ccccc1)*

Sequences of proteins named here, by UniProt entry; tags and fusion partners are left off. A change or cut given only in a name is not applied to a line headed by its entry.
UniProt Q92609: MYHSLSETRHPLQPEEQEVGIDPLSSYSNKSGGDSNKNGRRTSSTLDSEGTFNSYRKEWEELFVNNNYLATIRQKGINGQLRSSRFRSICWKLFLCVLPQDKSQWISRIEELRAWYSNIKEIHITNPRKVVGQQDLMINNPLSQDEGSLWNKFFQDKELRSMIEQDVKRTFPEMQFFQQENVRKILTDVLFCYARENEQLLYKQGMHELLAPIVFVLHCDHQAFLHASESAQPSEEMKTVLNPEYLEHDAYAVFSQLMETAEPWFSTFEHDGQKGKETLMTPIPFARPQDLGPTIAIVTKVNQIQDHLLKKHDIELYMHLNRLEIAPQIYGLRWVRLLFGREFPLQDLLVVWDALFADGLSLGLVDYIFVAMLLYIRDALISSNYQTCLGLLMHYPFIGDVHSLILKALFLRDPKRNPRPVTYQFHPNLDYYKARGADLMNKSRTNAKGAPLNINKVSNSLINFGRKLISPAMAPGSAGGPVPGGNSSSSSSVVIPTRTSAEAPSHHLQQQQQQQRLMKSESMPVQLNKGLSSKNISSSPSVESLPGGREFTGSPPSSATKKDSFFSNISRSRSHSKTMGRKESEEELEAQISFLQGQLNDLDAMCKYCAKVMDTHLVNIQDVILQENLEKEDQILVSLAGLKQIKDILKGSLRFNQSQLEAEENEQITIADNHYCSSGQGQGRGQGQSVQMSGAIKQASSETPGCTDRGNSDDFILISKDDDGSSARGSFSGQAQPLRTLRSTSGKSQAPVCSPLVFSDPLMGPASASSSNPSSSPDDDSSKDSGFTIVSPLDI
UniProt Q12800: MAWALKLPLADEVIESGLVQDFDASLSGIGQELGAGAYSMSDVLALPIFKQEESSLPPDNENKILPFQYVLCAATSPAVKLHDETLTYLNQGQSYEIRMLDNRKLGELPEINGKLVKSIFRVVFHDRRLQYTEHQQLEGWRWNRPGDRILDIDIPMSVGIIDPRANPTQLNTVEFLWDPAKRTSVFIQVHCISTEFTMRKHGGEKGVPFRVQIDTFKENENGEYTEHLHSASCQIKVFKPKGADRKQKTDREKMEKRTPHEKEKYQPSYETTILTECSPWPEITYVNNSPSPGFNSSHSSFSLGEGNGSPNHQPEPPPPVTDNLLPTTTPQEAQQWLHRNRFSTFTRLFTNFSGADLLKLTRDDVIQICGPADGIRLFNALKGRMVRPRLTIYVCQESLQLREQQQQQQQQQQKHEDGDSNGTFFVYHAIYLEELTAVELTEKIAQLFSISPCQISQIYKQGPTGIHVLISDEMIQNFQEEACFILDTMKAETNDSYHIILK
UniProt Q8WUH2: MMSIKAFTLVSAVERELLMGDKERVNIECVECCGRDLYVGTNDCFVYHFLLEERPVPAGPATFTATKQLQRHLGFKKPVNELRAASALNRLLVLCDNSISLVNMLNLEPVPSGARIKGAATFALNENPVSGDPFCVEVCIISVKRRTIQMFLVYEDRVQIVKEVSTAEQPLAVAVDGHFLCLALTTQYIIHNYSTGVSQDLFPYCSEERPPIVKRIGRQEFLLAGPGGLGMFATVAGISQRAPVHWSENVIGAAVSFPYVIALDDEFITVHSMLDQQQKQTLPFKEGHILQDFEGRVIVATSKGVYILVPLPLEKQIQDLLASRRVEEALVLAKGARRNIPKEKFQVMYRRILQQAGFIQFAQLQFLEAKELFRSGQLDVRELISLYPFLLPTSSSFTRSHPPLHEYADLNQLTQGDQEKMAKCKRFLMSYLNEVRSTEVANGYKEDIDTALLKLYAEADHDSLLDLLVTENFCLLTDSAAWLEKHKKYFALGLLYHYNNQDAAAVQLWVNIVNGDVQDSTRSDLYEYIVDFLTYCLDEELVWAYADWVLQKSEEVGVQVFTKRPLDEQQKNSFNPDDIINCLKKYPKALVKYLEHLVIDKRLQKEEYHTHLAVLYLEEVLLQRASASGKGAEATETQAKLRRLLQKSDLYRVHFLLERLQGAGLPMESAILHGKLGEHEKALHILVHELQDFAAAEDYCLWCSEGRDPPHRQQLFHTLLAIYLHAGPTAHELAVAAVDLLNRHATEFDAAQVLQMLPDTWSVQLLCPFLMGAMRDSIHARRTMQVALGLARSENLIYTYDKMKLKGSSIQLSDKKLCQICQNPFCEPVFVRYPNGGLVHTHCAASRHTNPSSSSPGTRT
UniProt Q8TC07: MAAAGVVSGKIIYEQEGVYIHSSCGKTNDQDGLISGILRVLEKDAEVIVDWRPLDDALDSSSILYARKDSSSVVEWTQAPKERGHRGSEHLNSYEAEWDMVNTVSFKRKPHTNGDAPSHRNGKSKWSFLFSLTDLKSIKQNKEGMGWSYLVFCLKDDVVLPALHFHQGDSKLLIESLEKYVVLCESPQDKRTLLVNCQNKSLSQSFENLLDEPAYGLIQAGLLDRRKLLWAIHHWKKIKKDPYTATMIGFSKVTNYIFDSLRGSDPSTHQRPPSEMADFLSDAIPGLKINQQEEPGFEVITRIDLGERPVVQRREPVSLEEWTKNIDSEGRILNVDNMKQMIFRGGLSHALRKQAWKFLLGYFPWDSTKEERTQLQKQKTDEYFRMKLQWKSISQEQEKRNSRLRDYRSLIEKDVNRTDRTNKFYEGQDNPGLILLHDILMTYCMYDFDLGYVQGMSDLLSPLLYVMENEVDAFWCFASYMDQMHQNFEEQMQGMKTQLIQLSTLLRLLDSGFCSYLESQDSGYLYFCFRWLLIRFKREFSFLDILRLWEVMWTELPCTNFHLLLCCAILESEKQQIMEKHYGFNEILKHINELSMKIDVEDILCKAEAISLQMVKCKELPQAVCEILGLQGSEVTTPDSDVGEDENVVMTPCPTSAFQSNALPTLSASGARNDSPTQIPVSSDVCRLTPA
UniProt Q8IYN2: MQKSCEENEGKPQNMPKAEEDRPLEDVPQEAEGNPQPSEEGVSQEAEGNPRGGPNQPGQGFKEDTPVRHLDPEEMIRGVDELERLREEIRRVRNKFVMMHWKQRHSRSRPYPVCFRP

How the values were obtained:
Assay in all cases: log2 fold change, soluble protein after heating vs DMSO (PISA); higher = thermal stabilisation; K562 cells, 10 uM, 30 min; active = over 0.2 and 3.5 SD of the protein, either way, in both replicates (recomputed)
erlotinib = compound: C#Cc1cccc(Nc2ncnc3cc(OCCOC)c(OCCOC)cc23)c1 [erlotinib]
Method in brief: (§1)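 Aliquots of K562 cells (2×10^6 cells/mL) treated with 10 μM compound for 30 min were heated for 3 min over 48°C-58°C. After pooling and extraction in PBS with 0.5% NP-40 at 4°C, soluble protein from a 21,000xg, 90 min spin was quantified by TMTpro 16plex LC-MS/MS with channel sums equalised. Thermal stability is expressed against control samples, from duplicates, as a log2 fold change.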

[1] = compound: C/C(=N\NC(=O)C1=CC(=CC=C1)S(=O)(=O)N2CCOCC2)/C3=C(C=CC(=C3)Cl)O
Method in brief: as §1

[2] = compound: C1=CC(=C(C=C1Cl)C2=NC3=NC=CN=C3C(=N2)NC4=CC=NC=C4)F
Method in brief: as §1

[3] = compound: C1=CC(=CC=C1C2=NC3=C(N2)C=C(C=C3)C(=O)N)OC4=CC=C(C=C4)Cl
Method in brief: as §1

[4] = compound: C1=CC2=C(C=CC(=C2)/C=C\3/C(=O)NC(=NCC4=CC=CS4)S3)N=C1
Method in brief: as §1

[5] = compound: C1=CC2=NC=CN=C2C=C1/C=C/3\C(=O)NC(=O)S3
Method in brief: as §1

[6] = compound: C1=CC=C(C=C1)C2=NC(=C(N2)C3=CC=NC=C3)C4=CC(=C(C=C4)Cl)O
Method in brief: as §1

[7] = compound: C1=CC=C2C(=C1)C3=NNC4=CC=CC(=C43)C2=O
Method in brief: as §1

[8] = compound: C1CCN(C1)C(=O)NC2=CC=CC(=C2)NC3=NC=C(C(=N3)NCCC4=CN=CN4)Br
Method in brief: as §1

[9] = compound: C1CN(CCC1(CC2=CC=C(C=C2)Cl)N)C3=NC=NC4=C3C=CN4
Method in brief: as §1

IRAK-1-4 Inhibitor I = compound: C1COCCN1CCN2C3=CC=CC=C3N=C2NC(=O)C4=CC(=CC=C4)[N+](=O)[O-] [IRAK-1-4 Inhibitor I]
Method in brief: as §1

ibrutinib = compound: C=CC(=O)N1CCC[C@@H](n2nc(-c3ccc(Oc4ccccc4)cc3)c3c(N)ncnc32)C1 [ibrutinib]
Method in brief: as §1

[10] = compound: CC(=O)c1cnc2ccc(-c3cc(Cl)c(O)c(Cl)c3)nc2c1N[C@H]1CC[C@H](CN(C)C)CC1
Method in brief: as §1

ralimetinib = compound: CC(C)(C)Cn1c(N)nc2ccc(-c3[nH]c(C(C)(C)C)nc3-c3ccc(F)cc3)nc21 [ralimetinib]
Method in brief: as §1

[11] = compound: CC(C)(O)CC(=O)NCCn1ccc2ncnc(Nc3ccc(Oc4cccc(C(F)(F)F)c4)c(Cl)c3)c21
Method in brief: as §1

[12] = compound: CC(C)C1=C2N=C(C=C(N2N=C1)NCC3=CC=CC=C3)NCCCCCCN
Method in brief: as §1

[13] = compound: CC(C)C[C@@H](C=O)NC(=O)[C@H](CC(C)C)NC(=O)[C@H](CC(C)C)NC(=O)OCc1ccccc1
Method in brief: as §1

pinometostat = compound: CC(C)N(C[C@H]1O[C@@H](n2cnc3c(N)ncnc32)[C@H](O)[C@@H]1O)[C@H]1C[C@@H](CCc2nc3cc(C(C)(C)C)ccc3[nH]2)C1 [pinometostat]
Method in brief: as §1

[14] = compound: CC1=C(C2=C(C=C1)C(=O)C3=CC=CC=C3N2CCCN)C
Method in brief: as §1

[15] = compound: CC1=C(C(CC(=O)N1)C2=CC=C(C=C2)C(F)(F)F)C(=O)NC3=C(C=C4C(=C3)C=NN4)F
Method in brief: as §1

| Target | log2 fold change (erlotinib) | log2 fold change [1] | log2 fold change [2] | log2 fold change [3] | log2 fold change [4] | log2 fold change [5] | log2 fold change [6] | log2 fold change [7] | log2 fold change [8] | log2 fold change [9] | log2 fold change (IRAK-1-4 Inhibitor I) | log2 fold change (ibrutinib) | log2 fold change [10] | log2 fold change (ralimetinib) | log2 fold change [11] | log2 fold change [12] | log2 fold change [13] | log2 fold change (pinometostat) | log2 fold change [14] | log2 fold change [15] |
| --- | --- | --- | --- | --- | --- | --- | --- | --- | --- | --- | --- | --- | --- | --- | --- | --- | --- | --- | --- | --- |
| TBC1D5 isoform 2 (UniProt Q92609) | inactive: 0.019 | inactive: 0.111 | inactive: -0.03 | inactive: -0.041 | inactive: 0.044 | inactive: 0.032 | inactive: -0.049 | inactive: 0.027 | inactive: -0.003 | inactive: -0.078 | inactive: -0.022 | inactive: -0.01 | inactive: -0.009 | inactive: 0.023 | inactive: -0.179 | active: -0.325 | inactive: 0.076 | inactive: 0.003 | inactive: 0.02 | – |
| TFCP2 (UniProt Q12800) | inactive: 0.078 | – | inactive: -0.163 | inactive: -0.036 | – | inactive: 0.003 | inactive: 0.048 | – | – | – | inactive: -0.033 | inactive: 0.028 | – | inactive: 0.149 | inactive: 0.084 | inactive: -0.408 | inactive: 0.081 | inactive: 0.242 | – | inactive: -0.02 |
| TGFBRAP1 (UniProt Q8WUH2) | inactive: 0.064 | inactive: 0.217 | inactive: -0.046 | inactive: -0.119 | inactive: 0.084 | inactive: 0.062 | inactive: 0.194 | inactive: 0.121 | inactive: -0.06 | inactive: -0.053 | inactive: -0.088 | inactive: -0.067 | inactive: -0.119 | inactive: 0.33 | inactive: -0.108 | inactive: -0.424 | inactive: -0.037 | inactive: 0.046 | inactive: -0.017 | – |
| TBC1D15 isoform 3 (UniProt Q8TC07) | inactive: -0.007 | inactive: 0.075 | inactive: 0.024 | inactive: -0.029 | inactive: 0.059 | inactive: 0.067 | inactive: 0.029 | inactive: -0.035 | inactive: 0.016 | inactive: -0.048 | inactive: 0.235 | inactive: -0.021 | inactive: 0.009 | inactive: 0.041 | inactive: -0.082 | active: -0.326 | inactive: 0.012 | inactive: 0.056 | inactive: -0.01 | – |
| TCEAL8 (UniProt Q8IYN2) | inactive: 0.036 | – | – | inactive: -0.004 | – | – | – | – | – | – | inactive: -0.136 | – | – | – | – | inactive: 0 | – | inactive: 0.003 | – | inactive: -0.014 |
